Measured data: PubChem BioAssay AID1259308 (NCATS, 2017)

- Screen: 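Genes whose loss raises luciferase production in HEK293 cells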 (primary screen)
- Cell system: human HEK293 embryonic kidney cells stably expressing firefly luciferase (HEK-CMV-Luc2-Hygro)
- Reagent: single siRNA against human genes, 0.8 pmol siRNA per well
- Duration: 72 h
- Measured: 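Reporter luminescence and viable-cell signal on separate replicate plates, given as percent of non-targeting control and median/MAD z-scores, plus per-cell luciferase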
- Reading the numbers: total luciferase, z-score and total luciferase, % of control: higher = more reporter protein produced
- Rule for the call: 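An siRNA counts as active if its total luciferase robust z-score exceeds 3; genes with two or more such siRNAs out of three were retested with fresh siRNAs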
- Meaning of the calls: active = raised luciferase; inactive = no rise
The deposit covers about 59,000 reagents; this is a random part of them. About 1,510 of all reagents (2.6%) were called active. 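Calls use total luciferase alone and ignore viability, so some active siRNAs may act by altering cell number.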 Reagents against one gene are numbered here. Not all columns of the deposit are shown. No sequences are given here.

Against CIB4 #1 the deposit lists total luciferase, z-score -2.58; total luciferase, % of control 30.5; inactive.
Depletion of CIB4 #2 gave: total luciferase, z-score 0.87; total luciferase, % of control 99.2; inactive.
With knock-down of CIB4 #3, the record shows total luciferase, z-score -0.926; total luciferase, % of control 63.5; inactive.
For LOC107984399 #1, the values are total luciferase, z-score 1.12; total luciferase, % of control 104; inactive.
Against LOC107984399 #2, the values are total luciferase, z-score 2.01; total luciferase, % of control 122; inactive.
Depletion of LOC107984399 #3 resulted in: total luciferase, z-score -0.213; total luciferase, % of control 77.7; inactive.

A run of entries taken from the entries so far, as a working copy:
CIB4 #2 — total luciferase, z-score = 0.87; total luciferase, % of control = 99.2; call = inactive
CIB4 #3 — total luciferase, z-score = -0.926; total luciferase, % of control = 63.5; call = inactive

The list goes on.
EDN1 #1 gave total luciferase, z-score 0.151; total luciferase, % of control 84.9; inactive.
Against EDN1 #2, the entry reads total luciferase, z-score 0.012; total luciferase, % of control 82.1; inactive.
Knock-down of EDN1 #3 gave: total luciferase, z-score -1.5; total luciferase, % of control 52.1; inactive.
NETO2 #1 showed total luciferase, z-score -0.236; total luciferase, % of control 77.2; inactive.
With knock-down of NETO2 #2, the record shows total luciferase, z-score -1.07; total luciferase, % of control 60.6; inactive.
NETO2 #3 showed total luciferase, z-score 1.92; total luciferase, % of control 120; inactive.
